Changes are numbered by the printed parent chain. Numbers in names are those of the source. These are yes or no findings as the source states them, for the method shown. In cells and extracts the contact can be indirect. Some binding calls cover weakened binding; strength is not graded here. Where a sequence is shown, tags or fusion partners need not be part of it.
B1: TagRFP-tagged ODR-3^WT (protein, UniProt Q18434 1-356)
chain: MGSCQSNENSEGNARNKEIEKQLNADKRAGSSIVKLLLLGAGECGKSTVLKQMQILHSNGFTEEEVNEKRAIVYNNTVSAMCTILRAMDGVLHLPLENGQKEAEKAIVMKVQENGEEGEALTEEVSKAIQSLWADPGVKKAFEMRSEYQLPDSAKYFLDNCQRISEPGYRPNDQDILYSRVATTGVVEVKFKIKELDFRVFDVGGQRSERRKWIHCFDNVESIIFITAISEYDQVLFEDETTNRMIESMQLFNSICNSTWFLSTAMILFMNKKDLFMEKIQRVNITTAFPDYEGGQNYEEAVSFIKQKFAELNLNPDKKTIYMHETCATDTNQVQLVISSVIDTIIQKNLQKAGMM
B2: TagRFP-tagged ODR-3^A328P (protein, UniProt Q18434 1-356)
chain: B1 chain with A328P

Molecular target: T1, GFP-fused RIC-8 (C. elegans) (UniProt Q9GSX9)
T1 sequence: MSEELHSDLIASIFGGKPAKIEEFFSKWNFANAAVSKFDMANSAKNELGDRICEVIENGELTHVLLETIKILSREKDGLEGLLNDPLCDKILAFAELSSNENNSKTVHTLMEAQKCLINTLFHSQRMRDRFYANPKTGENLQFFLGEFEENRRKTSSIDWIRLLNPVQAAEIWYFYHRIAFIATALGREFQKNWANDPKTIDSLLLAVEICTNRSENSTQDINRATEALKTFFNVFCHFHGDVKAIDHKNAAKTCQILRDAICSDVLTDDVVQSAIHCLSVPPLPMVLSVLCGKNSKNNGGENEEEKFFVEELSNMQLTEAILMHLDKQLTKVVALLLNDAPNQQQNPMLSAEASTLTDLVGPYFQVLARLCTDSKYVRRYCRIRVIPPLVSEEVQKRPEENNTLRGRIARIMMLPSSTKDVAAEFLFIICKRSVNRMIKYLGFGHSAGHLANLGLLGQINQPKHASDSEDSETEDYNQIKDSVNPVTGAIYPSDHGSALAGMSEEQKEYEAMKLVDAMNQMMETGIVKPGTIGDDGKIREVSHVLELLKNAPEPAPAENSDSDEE
Assay: FRET or BRET; FRET-FLIM in vivo: RIC-8::GFP alone or with TagRFP-tagged ODR-3 in AWC neurons under the ceh-36Δ promoter; read-out is GFP lifetime

Binder | binding
B1 | binds
B2 | binds
